Where a chain is given by its changes, count along the chain named. In names and notes the source's numbering stands. These are yes or no findings as the source states them, for the method shown. Binding seen in cells or lysates may run through a third protein. Some entries that bind do so weakly or less than the wild type. Sequences can lack the tags named with a protein. Values belong to the binder of their own block, whether it stands above or below them.
What was measured:
[1] = molecular target: mouse prestin carrying N7T and N308S, tagged with Venus or CFP (mouse) (UniProt Q99NH7); assay: FRET or BRET
[2] = molecular target: T1, wild-type mouse prestin, tagged with Venus or CFP (mouse), Q99NH7; assay: FRET or BRET; conditions: remark: other sources report otherwise
T1 chain: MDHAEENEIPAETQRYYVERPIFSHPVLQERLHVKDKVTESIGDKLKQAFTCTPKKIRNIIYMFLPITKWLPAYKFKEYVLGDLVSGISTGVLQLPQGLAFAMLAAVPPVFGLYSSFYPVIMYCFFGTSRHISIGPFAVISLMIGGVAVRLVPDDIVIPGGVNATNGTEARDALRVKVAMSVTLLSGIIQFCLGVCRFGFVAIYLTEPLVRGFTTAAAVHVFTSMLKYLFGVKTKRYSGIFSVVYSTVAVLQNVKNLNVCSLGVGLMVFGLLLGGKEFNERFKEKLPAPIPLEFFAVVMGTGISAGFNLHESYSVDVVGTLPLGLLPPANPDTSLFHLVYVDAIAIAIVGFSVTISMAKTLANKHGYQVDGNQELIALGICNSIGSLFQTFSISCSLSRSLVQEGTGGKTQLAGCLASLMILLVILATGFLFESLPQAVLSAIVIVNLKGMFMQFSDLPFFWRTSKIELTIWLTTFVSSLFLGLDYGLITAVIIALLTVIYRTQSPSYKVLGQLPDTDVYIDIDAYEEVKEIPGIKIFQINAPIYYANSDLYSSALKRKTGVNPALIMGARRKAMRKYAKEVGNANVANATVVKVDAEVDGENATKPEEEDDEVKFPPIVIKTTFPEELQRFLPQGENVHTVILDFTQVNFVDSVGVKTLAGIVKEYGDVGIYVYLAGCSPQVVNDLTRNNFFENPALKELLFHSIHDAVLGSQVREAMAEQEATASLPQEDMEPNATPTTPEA

binding [1]: binds
B1: mouse prestin carrying N7T and N308S, tagged with Venus or CFP (protein, UniProt Q99NH7 1-744)
chain: T1 chain with N7T, N308S

binding [2]: no binding
B2: wild-type mouse prestin, tagged with Venus or CFP, Q99NH7 1-744 (protein)
chain: T1 chain

Reference: article doi:10.1101/625533
